# This is one part of the list.
# What was measured:
# Experiment in all cases: glycan array binding signal (z-score within array); higher = stronger binding
# Conditions in all cases: glycan notation: IUPAC condensed, linker removed
# [1] = target: GalNAc(a1-3)GalNAc(b1-3)Gal(a1-4)Gal(b1-4)GlcNAc
# In short: (§1)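 Columns mapping to the same glycan were averaged after glycan names were converted to IUPAC-condensed notation. The data come from 3228 arrays in the Consortium for Functional Glycomics database, limited to those with an available protein sequence. Binding is reported as a within-array Z-score averaged across arrays of one protein sequence and across linkers.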
# GalNAc(b1-3)Gal = target: GalNAc(b1-3)Gal
# In short: as §1
# [2] = target: GalNAc(b1-3)Gal(a1-4)Gal(b1-4)GlcNAc
# In short: as §1
# [3] = target: GalNAc(b1-3)Gal(a1-4)Gal(b1-4)GlcNAc(b1-3)Gal(b1-4)Glc
# In short: as §1
# [4] = target: GalNAc(b1-3)Gal(a1-6)Gal(b1-4)Glc
# In short: as §1
# GalNAc(b1-3)GalNAc = target: GalNAc(b1-3)GalNAc
# In short: as §1
# GalNAc(b1-3)GlcNAc = target: GalNAc(b1-3)GlcNAc
# In short: as §1
# GalNAc(b1-4)Gal(b1-4)Glc = target: GalNAc(b1-4)Gal(b1-4)Glc
# In short: as §1
# GalNAc(b1-4)GlcNAc = target: GalNAc(b1-4)GlcNAc
# In short: as §1
# [5] = target: GalNAc(b1-4)GlcNAc(b1-2)Man
# In short: as §1
# [6] = target: GalNAc(b1-4)GlcNAc(b1-2)Man(a1-3)[GalNAc(b1-4)GlcNAc(b1-2)Man(a1-6)]Man(b1-4)GlcNAc(b1-4)GlcNAc
# In short: as §1
# [7] = target: GalNAc(b1-4)GlcNAc(b1-3)GalNAc(b1-4)GlcNAc
# In short: as §1
# GalNAc(b1-4)GlcNAc6S = target: GalNAc(b1-4)GlcNAc6S
# In short: as §1
# GalNAc(b1-6)GalNAc = target: GalNAc(b1-6)GalNAc
# In short: as §1
# GalNAc3S(b1-4)GlcNAc = target: GalNAc3S(b1-4)GlcNAc
# In short: as §1
# GalNAc3S(b1-4)GlcNAc3S = target: GalNAc3S(b1-4)GlcNAc3S
# In short: as §1
# [8] = target: GalNAc3S(b1-4)[Fuc(a1-3)]GlcNAc
# In short: as §1
# GalNAc4S6S(b1-4)GlcNAc = target: GalNAc4S6S(b1-4)GlcNAc
# In short: as §1
# GalNAc6S(b1-4)GlcNAc = target: GalNAc6S(b1-4)GlcNAc
# In short: as §1
# Glc(a1-4)Glc = target: Glc(a1-4)Glc
# In short: as §1
# [9] = target: Glc(a1-4)Glc(a1-4)Glc(a1-4)Glc
# In short: as §1
# Glc(a1-6)Glc(a1-6)Glc = target: Glc(a1-6)Glc(a1-6)Glc
# In short: as §1
# [10] = target: Glc(a1-6)Glc(a1-6)Glc(a1-6)Glc
# In short: as §1
# Glc(b1-4)Glc = target: Glc(b1-4)Glc
# In short: as §1
# Glc(b1-6)Glc = target: Glc(b1-6)Glc
# In short: as §1
# GlcA(b1-3)Gal = target: GlcA(b1-3)Gal
# In short: as §1
# GlcA(b1-3)GlcNAc = target: GlcA(b1-3)GlcNAc
# In short: as §1
# GlcA(b1-6)Gal = target: GlcA(b1-6)Gal
# In short: as §1
# [11] = target: GlcA3S(b1-3)Gal(b1-4)GlcNAc(b1-2)Man
# In short: as §1
# [12] = target: GlcA3S(b1-3)Gal(b1-4)GlcNAc(b1-3)Gal(b1-4)Glc
# In short: as §1
# [13] = target: GlcNAc(a1-3)Gal(b1-4)GlcNAc
# In short: as §1
# [14] = target: GlcNAc(a1-4)Gal(b1-3)GlcNAc
# In short: as §1
# [15] = target: GlcNAc(a1-4)Gal(b1-4)GalNAc
# In short: as §1
# [16] = target: GlcNAc(a1-4)Gal(b1-4)GlcNAc
# In short: as §1
# [17] = target: GlcNAc(a1-4)Gal(b1-4)GlcNAc(b1-3)Gal(b1-4)Glc
# In short: as §1
# [18] = target: GlcNAc(a1-4)Gal(b1-4)GlcNAc(b1-3)Gal(b1-4)GlcNAc
# In short: as §1
# [19] = target: GlcNAc(a1-4)Gal(b1-4)GlcNAc(b1-3)Gal(b1-4)GlcNAc(b1-3)Gal(b1-4)GlcNAc
# In short: as §1
# [20] = target: GlcNAc(a1-4)Gal(b1-4)GlcNAc(b1-3)Gal(b1-4)[Fuc(a1-3)]GlcNAc(b1-3)Gal(b1-4)[Fuc(a1-3)]GlcNAc
# In short: as §1
binder,measurement,setting,value
"AT3G09350(27) (Arabidopsis thaliana), Q84J81 (protein) MAKDGPNWDGLLKWSLSHADGTRPTRQLSEEDRKWFMEAMQSQTVDVVKRMKEITLVMQTPEQVLVEHGVTPEDIQDLLDELQEHVESIDMANDLHSIGGLVPLLSFLKNSHANIRAKAADVVSTIVQNNPRSQELVMETNALESLLSNFTSDTDIHARTQALGAISSLIRHNKPGVTAFKLANGYAGLRDALASDSVRFQRKALNLLQYLLQEDDSDRSIATGLGFPRVMMHLASSDDAEIREAALRGLLELSREKNDGSSSIDKSDEKLRQLLEERIKGITLMSQEDLETVKEERQLVDLLWSICYNEPSSLREKGLVVLPGEDALPPDVASKLFEPPLRASAANRNATEKKDEPMKLLGP",glycan array binding signal (z-score),[1],-0.307
same,glycan array binding signal (z-score),GalNAc(b1-3)Gal,0.212
same,glycan array binding signal (z-score),[2],4.3
same,glycan array binding signal (z-score),[3],0.298
same,glycan array binding signal (z-score),[4],-0.349
same,glycan array binding signal (z-score),GalNAc(b1-3)GalNAc,-0.149
same,glycan array binding signal (z-score),GalNAc(b1-3)GlcNAc,-0.629
same,glycan array binding signal (z-score),GalNAc(b1-4)Gal(b1-4)Glc,0.418
same,glycan array binding signal (z-score),GalNAc(b1-4)GlcNAc,7.59
same,glycan array binding signal (z-score),[5],-0.302
same,glycan array binding signal (z-score),[6],0.202
same,glycan array binding signal (z-score),[7],-0.167
same,glycan array binding signal (z-score),GalNAc(b1-4)GlcNAc6S,-0.93
same,glycan array binding signal (z-score),GalNAc(b1-6)GalNAc,-1.04
same,glycan array binding signal (z-score),GalNAc3S(b1-4)GlcNAc,-0.149
same,glycan array binding signal (z-score),GalNAc3S(b1-4)GlcNAc3S,-0.031
same,glycan array binding signal (z-score),[8],-0.037
same,glycan array binding signal (z-score),GalNAc4S6S(b1-4)GlcNAc,-0.972
same,glycan array binding signal (z-score),GalNAc6S(b1-4)GlcNAc,-0.386
same,glycan array binding signal (z-score),Glc(a1-4)Glc,0.008
same,glycan array binding signal (z-score),[9],-0.261
same,glycan array binding signal (z-score),Glc(a1-6)Glc(a1-6)Glc,-0.711
same,glycan array binding signal (z-score),[10],-0.182
same,glycan array binding signal (z-score),Glc(b1-4)Glc,-0.234
same,glycan array binding signal (z-score),Glc(b1-6)Glc,-0.976
same,glycan array binding signal (z-score),GlcA(b1-3)Gal,-0.672
same,glycan array binding signal (z-score),GlcA(b1-3)GlcNAc,-0.957
same,glycan array binding signal (z-score),GlcA(b1-6)Gal,-0.136
same,glycan array binding signal (z-score),[11],-0.38
same,glycan array binding signal (z-score),[12],0.438
same,glycan array binding signal (z-score),[13],-0.46
same,glycan array binding signal (z-score),[14],0.413
same,glycan array binding signal (z-score),[15],-0.399
same,glycan array binding signal (z-score),[16],-0.466
same,glycan array binding signal (z-score),[17],-0.604
same,glycan array binding signal (z-score),[18],-0.069
same,glycan array binding signal (z-score),[19],-0.25
same,glycan array binding signal (z-score),[20],0.47

# Part of the list above, with tabs:
binder	measurement	setting	value
AT3G09350(27) (Arabidopsis thaliana), Q84J81 (protein) MAKDGPNWDGLLKWSLSHADGTRPTRQLSEEDRKWFMEAMQSQTVDVVKRMKEITLVMQTPEQVLVEHGVTPEDIQDLLDELQEHVESIDMANDLHSIGGLVPLLSFLKNSHANIRAKAADVVSTIVQNNPRSQELVMETNALESLLSNFTSDTDIHARTQALGAISSLIRHNKPGVTAFKLANGYAGLRDALASDSVRFQRKALNLLQYLLQEDDSDRSIATGLGFPRVMMHLASSDDAEIREAALRGLLELSREKNDGSSSIDKSDEKLRQLLEERIKGITLMSQEDLETVKEERQLVDLLWSICYNEPSSLREKGLVVLPGEDALPPDVASKLFEPPLRASAANRNATEKKDEPMKLLGP	glycan array binding signal (z-score)	GalNAc4S6S(b1-4)GlcNAc	-0.972
same	glycan array binding signal (z-score)	GalNAc6S(b1-4)GlcNAc	-0.386
same	glycan array binding signal (z-score)	Glc(a1-4)Glc	0.008
same	glycan array binding signal (z-score)	[9]	-0.261
same	glycan array binding signal (z-score)	Glc(a1-6)Glc(a1-6)Glc	-0.711
same	glycan array binding signal (z-score)	[10]	-0.182
same	glycan array binding signal (z-score)	Glc(b1-4)Glc	-0.234
same	glycan array binding signal (z-score)	Glc(b1-6)Glc	-0.976
same	glycan array binding signal (z-score)	GlcA(b1-3)Gal	-0.672
same	glycan array binding signal (z-score)	GlcA(b1-3)GlcNAc	-0.957
same	glycan array binding signal (z-score)	GlcA(b1-6)Gal	-0.136

# Source: the supplement of paper PMC8728848
